Measured values taken from publication PMC3940611.
No constants are given. Whether binding was seen depends on the method and setting. Binding seen in cells or lysates may run through a third protein. Some entries that bind do so weakly or less than the wild type. Where a sequence is shown, tags or fusion partners need not be part of it.

The chains behind the UniProt entries cited, without tags or fusion partners.
UniProt P56546: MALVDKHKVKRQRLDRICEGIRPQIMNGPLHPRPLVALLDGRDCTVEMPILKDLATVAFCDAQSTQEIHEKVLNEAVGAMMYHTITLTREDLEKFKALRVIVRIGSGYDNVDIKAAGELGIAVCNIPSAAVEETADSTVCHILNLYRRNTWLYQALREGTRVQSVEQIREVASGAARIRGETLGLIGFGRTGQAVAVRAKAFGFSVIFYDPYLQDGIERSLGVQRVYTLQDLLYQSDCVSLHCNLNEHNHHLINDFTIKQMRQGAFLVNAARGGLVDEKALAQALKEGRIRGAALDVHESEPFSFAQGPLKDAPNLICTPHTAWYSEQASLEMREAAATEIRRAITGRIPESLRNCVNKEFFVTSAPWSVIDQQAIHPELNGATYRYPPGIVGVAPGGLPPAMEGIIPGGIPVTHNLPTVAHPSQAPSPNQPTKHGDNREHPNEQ

T1: eGFP-Zscan4c fusion protein (mouse) (UniProt Q80VJ6)
T1 sequence: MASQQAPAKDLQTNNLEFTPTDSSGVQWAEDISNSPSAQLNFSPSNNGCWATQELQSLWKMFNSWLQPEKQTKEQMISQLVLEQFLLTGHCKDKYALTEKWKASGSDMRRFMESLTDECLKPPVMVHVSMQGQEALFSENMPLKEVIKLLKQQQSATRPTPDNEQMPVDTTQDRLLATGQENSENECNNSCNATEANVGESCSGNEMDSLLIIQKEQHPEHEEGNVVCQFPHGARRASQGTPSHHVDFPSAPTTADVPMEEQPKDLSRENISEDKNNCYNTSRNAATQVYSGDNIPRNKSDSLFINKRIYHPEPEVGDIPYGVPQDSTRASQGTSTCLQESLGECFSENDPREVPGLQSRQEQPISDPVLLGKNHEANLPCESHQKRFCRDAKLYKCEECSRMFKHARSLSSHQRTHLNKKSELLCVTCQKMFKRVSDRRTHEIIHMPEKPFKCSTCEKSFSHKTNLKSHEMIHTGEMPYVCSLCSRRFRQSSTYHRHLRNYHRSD


Experiments:
[1] = target: T1, eGFP-Zscan4c fusion protein (mouse); experiment: co-IP; nuclear extracts of mouse ESCs (80 or 200 µg protein), pre-cleared, precipitated with GFP-Trap-A beads or anti-LSD-1, anti-CtBP2 or anti-V5 antibodies on protein A or G sepharose; washed with nuclear extraction buffer; immunoblot; Dox or Tet removal for 72 h to induce tagged Zscan4c
[2] = target: C-Terminal Binding Protein-2 (CtBP2) (mouse (endogenous in mouse ESCs)) (UniProt P56546); experiment: as above

binding [1] | binding [2] | Molecule
binds | – | C-Terminal Binding Protein-2 (CtBP2) (from UniProt P56546 1-445)
– | binds | Zscan4c-V5-His (protein, UniProt Q80VJ6 1-506) MASQQAPAKDLQTNNLEFTPTDSSGVQWAEDISNSPSAQLNFSPSNNGCWATQELQSLWKMFNSWLQPEKQTKEQMISQLVLEQFLLTGHCKDKYALTEKWKASGSDMRRFMESLTDECLKPPVMVHVSMQGQEALFSENMPLKEVIKLLKQQQSATRPTPDNEQMPVDTTQDRLLATGQENSENECNNSCNATEANVGESCSGNEMDSLLIIQKEQHPEHEEGNVVCQFPHGARRASQGTPSHHVDFPSAPTTADVPMEEQPKDLSRENISEDKNNCYNTSRNAATQVYSGDNIPRNKSDSLFINKRIYHPEPEVGDIPYGVPQDSTRASQGTSTCLQESLGECFSENDPREVPGLQSRQEQPISDPVLLGKNHEANLPCESHQKRFCRDAKLYKCEECSRMFKHARSLSSHQRTHLNKKSELLCVTCQKMFKRVSDRRTHEIIHMPEKPFKCSTCEKSFSHKTNLKSHEMIHTGEMPYVCSLCSRRFRQSSTYHRHLRNYHRSD
